Results: article PMC6796953
No constants are given. Whether binding was seen depends on the method and setting. In cells and extracts the contact can be indirect. Here binding means that the protein was enriched with, or labelled near, the bait; the list need not be complete. No binding means not detected with the bait. Sequences can lack the tags named with a protein. One block for each molecule: values may come before it.

Protein sequences, listed by entry. Tags and fused reporters are not part of them.
UniProt P29341: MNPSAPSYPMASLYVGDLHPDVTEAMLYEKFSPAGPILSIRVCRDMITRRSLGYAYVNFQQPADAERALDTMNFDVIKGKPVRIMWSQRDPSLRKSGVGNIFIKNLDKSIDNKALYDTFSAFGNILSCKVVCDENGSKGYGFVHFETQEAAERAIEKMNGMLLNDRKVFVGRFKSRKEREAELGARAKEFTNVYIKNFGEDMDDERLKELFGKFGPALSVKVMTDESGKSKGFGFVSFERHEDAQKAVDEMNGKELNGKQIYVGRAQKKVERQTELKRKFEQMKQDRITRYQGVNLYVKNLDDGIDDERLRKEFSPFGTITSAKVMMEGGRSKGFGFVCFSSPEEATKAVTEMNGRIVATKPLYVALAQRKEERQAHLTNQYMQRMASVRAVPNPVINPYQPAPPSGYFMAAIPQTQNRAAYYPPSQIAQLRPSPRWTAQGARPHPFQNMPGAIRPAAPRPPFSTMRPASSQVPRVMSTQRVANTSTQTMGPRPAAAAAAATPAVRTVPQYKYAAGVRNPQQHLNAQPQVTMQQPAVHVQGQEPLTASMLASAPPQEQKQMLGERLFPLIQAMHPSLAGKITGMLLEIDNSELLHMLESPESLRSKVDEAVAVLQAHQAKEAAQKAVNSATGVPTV
UniProt O88569: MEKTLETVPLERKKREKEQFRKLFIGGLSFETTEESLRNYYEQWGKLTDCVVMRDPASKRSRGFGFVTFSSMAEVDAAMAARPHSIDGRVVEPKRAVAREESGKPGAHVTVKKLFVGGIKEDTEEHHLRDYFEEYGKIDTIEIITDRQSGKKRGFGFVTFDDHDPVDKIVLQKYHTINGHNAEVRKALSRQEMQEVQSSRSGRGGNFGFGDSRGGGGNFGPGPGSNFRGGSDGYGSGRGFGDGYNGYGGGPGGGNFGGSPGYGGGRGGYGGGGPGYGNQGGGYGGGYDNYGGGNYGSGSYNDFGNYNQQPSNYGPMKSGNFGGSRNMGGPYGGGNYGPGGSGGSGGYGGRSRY
UniProt Q8BG05: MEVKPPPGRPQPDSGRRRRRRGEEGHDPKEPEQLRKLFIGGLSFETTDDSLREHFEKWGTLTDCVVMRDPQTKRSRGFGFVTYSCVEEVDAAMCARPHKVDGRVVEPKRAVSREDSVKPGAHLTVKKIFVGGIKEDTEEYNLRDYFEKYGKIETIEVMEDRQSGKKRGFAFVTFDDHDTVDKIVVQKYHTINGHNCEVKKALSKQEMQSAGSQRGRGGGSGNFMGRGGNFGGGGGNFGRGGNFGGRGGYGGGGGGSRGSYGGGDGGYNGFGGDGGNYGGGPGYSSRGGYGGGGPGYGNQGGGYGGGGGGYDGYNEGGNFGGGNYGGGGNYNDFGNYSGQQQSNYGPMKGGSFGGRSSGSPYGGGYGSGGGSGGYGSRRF

Molecular target: T1, Flag-mRbm14 (mouse) (UniProt Q8C2Q3)
T1 sequence: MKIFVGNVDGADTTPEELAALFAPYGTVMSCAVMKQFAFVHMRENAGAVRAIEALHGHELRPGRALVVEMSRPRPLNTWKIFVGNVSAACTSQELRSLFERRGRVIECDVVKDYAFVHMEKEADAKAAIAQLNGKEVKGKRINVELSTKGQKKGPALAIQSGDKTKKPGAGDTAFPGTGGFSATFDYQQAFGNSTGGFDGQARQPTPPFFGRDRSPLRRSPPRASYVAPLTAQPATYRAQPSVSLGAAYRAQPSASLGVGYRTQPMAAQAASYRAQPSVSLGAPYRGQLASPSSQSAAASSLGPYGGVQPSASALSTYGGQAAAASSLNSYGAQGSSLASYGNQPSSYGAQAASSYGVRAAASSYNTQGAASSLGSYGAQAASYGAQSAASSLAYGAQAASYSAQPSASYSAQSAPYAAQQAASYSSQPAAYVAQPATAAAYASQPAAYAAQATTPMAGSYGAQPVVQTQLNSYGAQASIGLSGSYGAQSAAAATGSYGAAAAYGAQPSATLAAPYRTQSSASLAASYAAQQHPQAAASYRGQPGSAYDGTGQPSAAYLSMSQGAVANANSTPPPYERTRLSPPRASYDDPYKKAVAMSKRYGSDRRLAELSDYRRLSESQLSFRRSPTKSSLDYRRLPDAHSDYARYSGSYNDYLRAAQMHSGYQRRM
Assay: affinity purification with mass spectrometry; Flag-mRbm14 or Flag-GFP expressed in mouse embryonic stem cells, immunoprecipitated with anti-Flag resin; shotgun mass spectrometry of the immunoprecipitates

Molecule: hnRNPL1 (mouse)
binding: binds

Molecule: poly(A)-binding protein (Pabpc1) (from UniProt P29341 1-636)
binding: binds

B2: Nanog (mouse) (protein, UniProt Q80Z64 1-305)
chain: MSVGLPGPHSLPSSEEASNSGNASSMPAVFHPENYSCLQGSATEMLCTEAASPRPSSEDLPLQGSPDSSTSPKQKLSSPEADKGPEEEENKVLARKQKMRTVFSQAQLCALKDRFQKQKYLSLQQMQELSSILNLSYKQVKTWFQNQRMKCKRWQKNQWLKTSNGLIQKGSAPVEYPSIHCSYPQGYLVNASGSLSMWGSQTWTNPTWSSQTWTNPTWNNQTWTNPTWSSQAWTAQSWNGQPWNAAPLHNFGEDFLQPYVQLQQNFSASDLEVNLEATRESHAHFSTPQALELFLNYSVTPPGEI
binding: no binding

B3: hnRNPF (mouse) (protein, UniProt Q9Z2X1 1-415)
chain: MMLGPEGGEGYVVKLRGLPWSCSIEDVQNFLSDCTIHDGVAGVHFIYTREGRQSGEAFVELESEDDVKLALKKDRESMGHRYIEVFKSHRTEMDWVLKHSGPNSADSANDGFVRLRGLPFGCTKEEIVQFFSGLEIVPNGITLPVDPEGKITGEAFVQFASQELAEKALGKHKERIGHRYIEVFKSSQEEVRSYSDPPLKFMSVQRPGPYDRPGTARRYIGIVKQAGLDRMRSGAYSAGYGGYEEYSGLSDGYGFTTDLFGRDLSYCLSGMYDHRYGDSEFTVQSTTGHCVHMRGLPYKATENDIYNFFSPLNPVRVHIEIGPDGRVTGEADVEFATHEEAVAAMSKDRANMQHRYIELFLNSTTGASNGAYSSQVMQGMGVSAAQATYSGLESQSVSGCYGAGYSGQNSMGGYD
binding: binds

B4: hnRNPH1 (mouse) (protein, UniProt O35737 1-449)
chain: MMLGAEGGEGFVVKVRGLPWSCSADEVQRFFSDCKIQNGAQGIRFIYTREGRPSGEAFVELESEDEVKLALKKDRETMGHRYVEVFKSNNVEMDWVLKHTGPNSPDTANDGFVRLRGLPFGCSKEEIVQFFSGLEIVPNGITLPVDFQGRSTGEAFVQFASQEIAEKALKKHKERIGHRYIEIFKSSRAEVRTHYDPPRKLMAMQRPGPYDRPGAGRGYNSIGRGAGFERMRRGAYGGGYGGYDDYNGYNDGYGFGSDRFGRDLNYCFSGMSDHRYGDGGSTFQSTTGHCVHMRGLPYRATENDIYNFFSPLNPVRVHIEIGPDGRVTGEADVEFATHEDAVAAMSKDKANMQHRYVELFLNSTAGASGGAYEHRYVELFLNSTAGASGGAYGSQMMGGMGLSNQSSYGGPASQQLSGGYGGGYGGQSSMSGYDQVLQENSSDFQSNIA
binding: binds

Second part, the molecule after the results:

binding: binds
Molecule: hnRNPA2B1 (mouse) (from UniProt O88569 1-353)

binding: binds
Molecule: hnRNPA3 (mouse) (from UniProt Q8BG05 1-379)

binding: binds
Molecule: hnRNPK (mouse) (from UniProt P61979 1-463)

binding: binds
B1: hnRNPDL (mouse) (protein, UniProt Q9Z130 1-301)
chain: MEDMNEYSNIEEFAEGSKINASKNQQDDGKMFIGGLSWDTSKKDLTEYLSRFGEVVDCTIKTDPVTGRSRGFGFVLFKDAASVDKVLELKEHKLDGKLIDPKRAKALKGKEPPKKVFVGGLSPDTSEEQIKEYFGAFGEIENIELPMDTKTNERRGFCFITYTDEEPVKKLLESRYHQIGSGKCEIKVAQPKEVYRQQQQQQKGGRGAAAGGRGGARGRGRGQGQNWNQGFNNYYDQGYGNYNSAYGGDQNYSGYGGYDYTGYNYGNYGYGQGYADYSGQQSTYGKASRGGGNHQNNYQPY
